# Assay results published in publication doi:10.1101/2025.10.27.684836 (bioRxiv, 2025).
# By UniProt entry, the sequences of proteins in these tests, tags left out. Where a name states a change or a piece, a line headed by the entry shows the natural chain unless it says otherwise.
# UniProt Q8BX22, whole entry: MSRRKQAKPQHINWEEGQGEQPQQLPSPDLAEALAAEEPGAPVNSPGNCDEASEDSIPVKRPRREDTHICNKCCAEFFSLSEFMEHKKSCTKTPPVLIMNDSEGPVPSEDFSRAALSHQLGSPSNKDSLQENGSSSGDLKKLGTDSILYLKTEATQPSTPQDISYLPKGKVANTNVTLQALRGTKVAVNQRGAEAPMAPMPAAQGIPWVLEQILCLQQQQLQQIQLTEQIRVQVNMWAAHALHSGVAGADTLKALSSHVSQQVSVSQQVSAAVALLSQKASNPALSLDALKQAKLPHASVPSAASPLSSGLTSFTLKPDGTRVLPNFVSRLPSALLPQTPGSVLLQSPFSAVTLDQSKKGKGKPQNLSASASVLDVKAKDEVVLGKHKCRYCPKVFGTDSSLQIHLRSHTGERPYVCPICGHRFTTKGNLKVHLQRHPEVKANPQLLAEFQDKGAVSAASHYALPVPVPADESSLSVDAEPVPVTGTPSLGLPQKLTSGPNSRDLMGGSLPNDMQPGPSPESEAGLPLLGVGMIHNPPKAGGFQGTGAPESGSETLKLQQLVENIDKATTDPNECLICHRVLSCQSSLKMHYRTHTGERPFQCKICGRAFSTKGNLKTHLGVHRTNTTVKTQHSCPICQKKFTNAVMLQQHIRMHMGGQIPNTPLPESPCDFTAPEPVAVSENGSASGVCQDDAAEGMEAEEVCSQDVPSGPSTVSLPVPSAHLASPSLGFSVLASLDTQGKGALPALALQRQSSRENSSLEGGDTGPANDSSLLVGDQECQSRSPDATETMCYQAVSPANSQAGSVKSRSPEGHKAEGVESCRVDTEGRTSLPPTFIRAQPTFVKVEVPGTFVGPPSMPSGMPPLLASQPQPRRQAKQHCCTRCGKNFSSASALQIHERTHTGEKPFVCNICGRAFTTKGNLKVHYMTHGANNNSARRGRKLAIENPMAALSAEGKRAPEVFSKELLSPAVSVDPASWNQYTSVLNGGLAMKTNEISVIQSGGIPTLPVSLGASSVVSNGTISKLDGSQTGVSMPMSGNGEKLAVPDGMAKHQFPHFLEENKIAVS
# Where two headings read alike, the source gives them in different places. No constants are given. Whether binding was seen depends on the method and setting. In cells and extracts the contact can be indirect. Some results given as binding are weak or reduced against the parent protein; the word gives no strength. For part of these data: Sequences can lack the tags named with a protein.
# T1: human SALL1 N-terminal fragment S1Nmut (I241P) with C-terminal GFP 3xFlag tags (human) (UniProt Q9NSC2)
# T1 sequence: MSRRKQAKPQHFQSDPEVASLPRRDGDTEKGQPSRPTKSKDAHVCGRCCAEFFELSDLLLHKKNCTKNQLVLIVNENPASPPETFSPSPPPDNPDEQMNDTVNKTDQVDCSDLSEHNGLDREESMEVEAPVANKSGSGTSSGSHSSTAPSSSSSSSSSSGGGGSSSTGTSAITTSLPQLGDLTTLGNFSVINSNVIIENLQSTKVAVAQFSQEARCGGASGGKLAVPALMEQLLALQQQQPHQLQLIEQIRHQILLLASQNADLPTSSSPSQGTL
# B1: SALL1 (endogenous) (protein, UniProt Q9ER74 1-1322)
# chain: MSRRKQAKPQHFQSDPEVASLPRRDGDTEKGQPSRPTKSKDAHVCGRCCAEFFELSDLLLHKKSCTKNQLVLIVNESPASPAKTFPPGPSLNDPDDQMKDAANKADQEDCSDLSEPKGLDREESMEVEVPVATTTTTTTGGSGGSGGSTLSGVTNITTPSCHSGCSSGTSAITTSLPQLGDLTTLGNFSVINSNVIIENLQSTKVAVAQFSQEARCGGASGGKLLISTLMEQLLALQQQQIHQLQLIEQIRHQILLLASQSADLPAAPSIPSQGTLRTSANPLTTLSSHLSQQLAVAAGLAQSLASQSANISGVKQLPHVQLPQSSSGTSIVPPSGGTSPNMSIVTAAVPTPSSEKVASNAGASHVSSPAVSASSSPAFAISSLLSPESNPLLPQPTPANAVFPTPLPNIATTAEDLNSLSALAQQRKSKPPNVTAFEAKSTSDEAFFKHKCRFCAKVFGSDSALQIHLRSHTGERPFKCNICGNRFSTKGNLKVHFQRHKEKYPHIQMNPYPVPEHLDNVPTSTGIPYGMSIPSEKPVTSWLDTKPVLPTLTTSVGLPLPPTLPSLTPFIKTEEPAPIPISHSAASPQGSVKSDSGAPDLATRNPSGVPEEVEGSAVPPFGGKGEESNMASSAVPTAGNSTLNSPVADGGPGGTTFTNPLLPLMSEQFKAKFPFGGLLDSAQASETSKLQQLVENIDKKATDPNECIICHRVLSCQSALKMHYRTHTGERPFKCKICGRAFTTKGNLKTHYSVHRAMPPLRVQHSCPICQKKFTNAVVLQQHIRMHMGGQIPNTPVPDNYPESMESDTGSFDEKNFDDLDNFSDENMEECPEGSIPDTPKSADASQDSLSSSPLPLEMSSIAALENQMKMINAGLAEQLQASLKSVENGSMEGDVLTNDSSSVGGDMESQSAGSPAISESTSSMQALSPSNSTQEFHKSPGMEEKPQRVGPGEFANGLSPTPVNGGALDLTSSHAEKIIKEDSLGILFPFRDRGKFKNTACDICGKTFACQSALDIHYRSHTKERPFICTVCNRGFSTKGNLKQHMLTHQMRDLPSQLFEPSSNLGPNQNSAVIPANSLSSLIKTEVNGFVHVSPQDSKDAPTSHVPQGPLSSSATSPVLLPALPRRTPKQHYCNTCGKTFSSSSALQIHERTHTGEKPFACTICGRAFTTKGNLKVHMGTHMWNSTPARRGRRLSVDGPMTFLGGNPVKFPEMFQKDLAARSGSGDPSSFWNQYTAALSNGLAMKANEISVIQNGGIPPIPGSLGSGSSPISGLTGNVEKLGNSEPSAPLAGLEKMASSENGTNFRFTRFVEDSKEIVTS
# What was measured:
# Test in all cases: co-IP
# [1] = biological target: T1, human SALL1 N-terminal fragment S1Nmut (I241P) with C-terminal GFP 3xFlag tags (human)
# [2] = biological target: 3xFlag-tagged SALL4 full-length (SALL4a) (mouse) (UniProt Q8BX22)
# [3] = biological target: T1, human SALL1 N-terminal fragment S1Nmut (I241P) with C-terminal GFP 3xFlag tags (human); remark: listed apart in the source
# [4] = biological target: 3xFlag-tagged SALL4 full-length (SALL4a) (mouse) (UniProt Q8BX22); remark: listed apart in the source
# [5] = biological target: SALL4 (endogenous, wild type) (mouse (endogenous in ESCs)) (UniProt Q8BX22)
# [6] = biological target: SALL4 QIDmut (endogenous, L221P) (mouse (endogenous in ESCs)) (UniProt Q8BX22)
molecule,measurement,setting,value
SALL4-mScarlet3 fusion protein (endogenously tagged) (from UniProt Q8BX22 1-1067),binding,[1],no binding
HA-tagged SALL4 full-length (from UniProt Q8BX22 1-1067),binding,[2],binds
B1,binding,[3],no binding
same,binding,[4],binds
same,binding,[5],binds
same,binding,[6],no binding
